Experimental findings from US6664232B1 (Kyogo Itoh, priority 1998, dated 2003) are described below.

The nature of series [1]: general procedure: Fmoc solid-phase peptide synthesis; Fmoc-Leu-Alko Resin. The note with it: whole synthesis, scale 100 mg resin.
Series [2] is described as follows: general procedure: Fmoc solid-phase peptide synthesis; Fmoc-Val-Alko Resin. As to conditions: whole synthesis, scale 100 mg resin.

No end group written: not given here.

AQKTPYIVL returned an isolated mass in series [1] of 29.3 mg. In turn, LLETTVQKV had an isolated mass in series [2] of 32.2 mg.

In series [1], LLLCQNKGL showed an isolated mass of 46.3 mg. Still for that read-out and setting: for LLLCQNKGLL the value was 27.1 mg. In series [2], RVKAPNKSL registered an isolated mass of 44.7 mg. For YVDETGRKL, the isolated mass in series [1] is listed as 42.3 mg.
